Measured values taken from patent US20230251254A1, “METHOD FOR EVALUATING INTERACTION BETWEEN IMMOBILIZED SUBSTANCE IMMOBILIZED DIRECTLY OR INDIRECTLY ON SUBSTRATE AND PROXIMITY-DEPENDENT MODIFYING ENZYMELABELED SUBSTANCE TO BE ANALYZED” (CELLFREE SCIENCES CO.,LTD., priority 2020, published 2023).
Results are given in words; binding and its absence hold for the method and conditions named. Some binding calls cover weakened binding; strength is not graded here. Sequences can lack the tags named with a protein.

The chains behind the UniProt entries cited, without tags or fusion partners. Where a name states a change or a piece, a line headed by the entry shows the natural chain unless it says otherwise.
UniProt Q04206: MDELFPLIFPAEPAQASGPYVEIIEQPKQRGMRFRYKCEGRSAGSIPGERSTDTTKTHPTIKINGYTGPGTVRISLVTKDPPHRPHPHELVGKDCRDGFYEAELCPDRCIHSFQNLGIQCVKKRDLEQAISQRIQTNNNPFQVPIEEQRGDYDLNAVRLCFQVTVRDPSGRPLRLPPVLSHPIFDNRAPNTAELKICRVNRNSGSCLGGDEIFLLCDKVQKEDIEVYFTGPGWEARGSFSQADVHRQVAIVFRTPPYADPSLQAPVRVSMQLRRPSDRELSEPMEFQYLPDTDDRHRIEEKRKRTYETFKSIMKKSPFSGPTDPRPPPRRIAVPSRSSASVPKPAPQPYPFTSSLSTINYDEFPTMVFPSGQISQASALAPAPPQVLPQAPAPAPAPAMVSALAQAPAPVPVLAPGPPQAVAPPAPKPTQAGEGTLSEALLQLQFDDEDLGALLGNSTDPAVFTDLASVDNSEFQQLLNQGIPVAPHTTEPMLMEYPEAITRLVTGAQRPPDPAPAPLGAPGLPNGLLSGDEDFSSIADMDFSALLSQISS

Target: T1, FLAG-GST-fused RelA (UniProt Q04206 1-551)
T1 construct: Immobilized on glutathione magnetic beads on the non-denatured protein array; Order of the parts follows the printed name FLAG-GST; also called FLAG-GST-fused immobilized substance (RelA); not shown: FLAG tag protein; GST protein (glutathione S-transferase tag)
Experiment: AirID proximity biotinylation on non-denatured protein array; HRP-streptavidin chemiluminescence

B1: AirID-fused Iκβα (other)
chain: MKDNTVPLTLISILADGEFHSGEQLGEQLGMSRAAINKHIKTLRDWGVDVFRVQGKGYCLPEPIQLLDEEKIRQQLDEGSVTVLPVIDSTNQYLLDRLDELTSGDVCIAEYQQAGRGSRGRKWFSPFGANLYLSMYWRLEQGPAAAMGLSLVIGIVMAETLQKLGADGVRVKWPNDLYLNDRKLAGILVEMTGKTGDAAHIVIGAGINLSMREPETDEVDQSWINLQEAGITIDRNQLAARLIKDLRSALRQFEQQGLAPFLSRWEALDNFINRPVKLIIGDREIHGIARGINEQGALLLEQDGVIKPWIGGEISLRSAMFQAAERPQEWAMEGPRDGLKKERLLDDRHDSGLDSMKDEEYEQMVKELQEIRLEPQEVPRSSEPWKQQLTEDGDSFLHLAIIHEEKALTMEVIRQVKGDLAFLNFQNNLQQTPLHLAVITNQPEIAEALLGAGCDPELRDFRGNTPLHLACEQGCLASVGVLTQSCTTPHLHSILKATNYNGHTCLHLASIHGYLGIVELLVSLGADVNAQEPCNGRTALHLAVDLQNPDLVSLLLKCGADVNRVTYQGYSPYQLTWGRPSTRIQQQLGQLTLENLQMLPESEDEESYDTESEFTEFTEDELPYDDCVFGGQRLTL
notes: Fusion made in a wheat cell-free system; also called AirID-fused substance to be analyzed (Iκβα)
With B1 the binding was “binds”.
